Literature values as cited in US9808437B2, “Monounsaturated fatty acid compositions and use for treating atherosclerosis” (BURKE & BOYER NYC, priority 2014, dated 2017).
Where two headings read alike, the source gives them in different places. For at least one compound, name, drawing or mass did not settle the structure.

System: atherogenic apoE-deficient mice
Conditions: P<0.05

## O=c1c(O[C@@H]2O[C@H](CO)[C@@H](O)[C@H](O)[C@H]2O)c(-c2ccc(O)c(O)c2)oc2cc(O)cc(O)c12 [Isoquercitrin]
Study 1, control 9.5 ± 4.1
  Aortic Lesion: 5.9 ± 2.5 %
Study 2, control 8.8 ± 3.5
  Aortic Lesion: 4.4 ± 1.5 %
